# Reference: patent publication US20160333113A1 (NATIONAL CANCER CENTER, published 2016)
# By UniProt entry, the sequences of proteins in these tests, tags left out. Where a name states a change or a piece, a line headed by the entry shows the natural chain unless it says otherwise.
# UniProt P13726: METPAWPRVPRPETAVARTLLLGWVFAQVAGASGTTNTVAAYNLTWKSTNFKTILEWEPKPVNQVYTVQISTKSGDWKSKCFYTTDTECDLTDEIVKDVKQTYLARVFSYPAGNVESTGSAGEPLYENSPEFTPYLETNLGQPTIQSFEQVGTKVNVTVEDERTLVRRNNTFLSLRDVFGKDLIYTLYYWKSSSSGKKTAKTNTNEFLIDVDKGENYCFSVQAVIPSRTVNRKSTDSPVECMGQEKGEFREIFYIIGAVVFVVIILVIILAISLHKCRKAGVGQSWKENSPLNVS
# No constants are given. Whether binding was seen depends on the method and setting. Some entries that bind do so weakly or less than the wild type.
# B1: anti-hTF human chimeric antibody (No. 1849) (antibody, human IgG1, kappa, V domains shown)
# VH: EVQLVESGGGLVQSGRSLKLSCAASGFTFSDYNMAWIRQAPKKGLEWVAAIIYDGTRTYYRDSVRGRFTISRDNAKSTLYLQVDSLRSEDTATYYCATGDSYTNFAYWGQGTLVTVSS
# VL: EIVLTQSPTTMAASPGEKVTLTCRASSSLSYMHWYQQRSGTSPKLWIYETSKLASGVPNRFSGSGSGTSFSLTIDSMETEDAATYYCQQGNSYPRTFGGGTKLELKR
# Target: human tissue factor (hTF), purified, construct not stated (human) (UniProt P13726)
# Assay: ELISA with culture supernatant
binder,measurement,value
B1,binding,binds
